Values from PubChem BioAssay AID1259405 (NCATS, 2018)

Aim: 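Silenced genes that increase secreted GFP made by CHO cells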 (primary screen)
Cells: Chinese hamster CHO-K1 ovary cells with stable secreted eGFP expression
Knock-down reagent: single siRNA against mouse genes, 0.8 pmol siRNA per well (2 µl of 400 nM stock)
Duration: 3 days
Detection: 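Per-well intracellular GFP measured by laser scanning cytometry, plus viability from ATP luminescence, each relative to plate median of non-targeting control wells, in %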
Scale: GFP, % of control: higher = more GFP per well, higher productivity; viability (ATP), % of control: higher = more viable cells (more ATP)
Rule for the call: 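Called active when intracellular GFP, relative to negative control, is at or above 120%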
Shown is an unselected part of about 50,000 reagents. Over the whole deposit, about 4,000 (8%) were called active. 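Mouse siRNA library applied to hamster cells; one well for each siRNA.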 Entries without a mark were called inactive. Reagents against one gene are numbered here.

no.	gene symbol	reagent no.	GFP, % of control	viability (ATP), % of control
1	P2ry10b	1	114	49.4
2	P2ry10b	2	86.6	82.7
3	P2ry10b	3	83	95.1
4	H2-D4	1	57.5	75.6
5	H2-D4	2	89.6	60.9
6	H2-D4	3	25.5	19.2
7	Trim68	1	59.1	55.7
8	Trim68	2	99.5	83.7
9	Trim68	3	98.6	81.2
10	Asb7	1	96.6	78.8
11	Asb7	2	73.5	81.1
12	Asb7	3	53.3	74.8
13	Chd9	1	87.9	82.7
14	Chd9	2	81.8	66
15	Chd9	3	111	74.2
16	Wdr64	1	78.7	72.9
17	Wdr64	2	66.2	54.4
18	Wdr64	3	81.7	114
19	Smad6	1	59.6	65
20	Smad6	2	73.3	61.6
21	Smad6	3	80.2	102
22	Vmn2r-ps54	1	58.5	69.9
23	Vmn2r-ps54	2	74.8	82
24	Vmn2r-ps54	3	54.1	54.5
25	Prss41	1	43.2	35.7
26	Prss41	2	74.7	52.6
27	Prss41	3	64.9	86.8
28	Tep1	1	94	90.3
29	Tep1	2	92.4	88.1
30	Hoxc6	1	97.5	75.1
31	Hoxc6	2	82.2	82.4
32	Hoxc6	3	81.6	98.8
33	Or5p68	1	104	96.8
34	Or5p68	2	82.8	57.4
35	Or5p68	3	65.8	34.8
36	Gab1	1	48.7	55.3
37	Gab1	2	85.2	105
38	Gab1	3	52.5	73.8
39	Map2k6	1	153 (active)	130
40	Apom	1	28.1	35.5
41	Apom	2	58.4	81.2
42	Apom	3	88.9	92.5
43	Cpne5	1	73.4	76.9
44	Cpne5	2	52.3	80.2
45	Cpne5	3	108	130
46	Bpifb5	1	50.8	50.6
47	Bpifb5	2	53.2	82.3
48	Bpifb5	3	101	108
49	Wnt7b	1	81.5	53.1
50	Wnt7b	2	60.7	49.8
51	Wnt7b	3	69.6	81.2
52	Grk6	1	85.1	94.9
53	Grk6	2	61.6	60.6
54	Grk6	3	116	113
55	Col4a4	1	95.8	101
56	Col4a4	2	46.2	31.7
57	Col4a4	3	109	114
58	Kif18a	1	115	65.3
59	Kif18a	2	86	92.7
60	Zfp458	1	91.6	77.7
61	Zfp458	2	50.6	85
62	Zfp458	3	80.2	78.7
63	Afap1l1	1	61.9	52.8
64	Afap1l1	2	45.7	41.8
65	Afap1l1	3	90.3	87.5
66	Blnk	1	43.2	31.5
67	Blnk	2	61.3	72.4
68	Blnk	3	70.8	58.9
69	Vps16	1	85.4	78.4
70	Vps16	2	71.1	81.1
71	Vps16	3	56.3	52.2
72	Slc1a3	1	78.2	92.3
73	Slc1a3	2	84	81
74	Slc1a3	3	82.5	78.3
75	Rgs9	1	54.9	50
76	Rgs9	2	64.1	69.2
77	Rgs9	3	68.8	47.5
78	Tcaf2	1	20.2	46.6
79	Tcaf2	2	103	101
80	Tcaf2	3	110	124
81	Padi6	1	87.4	117
82	Padi6	2	43.3	56.7
83	Padi6	3	65.5	75.1
84	Myo1g	1	74.7	73.6
85	Myo1g	2	168 (active)	108
86	Myo1g	3	54.9	58.5
87	Rax	1	98	89.1
88	Rax	2	92.4	79.8
89	Or2g7	1	101	52.5
90	Or2g7	2	110	49.7
91	Or2g7	3	68.5	95
92	Ppip5k1	1	76.1	73.7
93	Ppip5k1	2	108	93.5
94	Ppip5k1	3	80.5	71.8
95	Cdc25c	1	114	84.9
96	Cdc25c	2	94.4	87.2
97	Cdc25c	3	84.3	71.9
98	Ptgs2	1	97.3	59.7
99	Ptgs2	2	53.1	60.1
100	Ptgs2	3	79.3	82.3
101	Cttn	1	46.3	40.2
102	Cttn	2	69.2	74.2
103	Cttn	3	79.1	54.4
104	Rnf43	1	102	97.8
105	Rnf43	2	108	78.9
106	Rnf43	3	112	80.2
107	Zfp663	1	79.2	76.5
108	Zfp663	2	69.5	60.9
109	Zfp663	3	71.6	76.6
